Measured values taken from publication PMC10442235.
Results are given in words; binding and its absence hold for the method and conditions named. Binding seen in cells or lysates may run through a third protein. A yes stands for co-enrichment or nearness to the bait. Other partners may have been found. For some of these results: Where a sequence is shown, tags or fusion partners need not be part of it. Values belong to the molecule of their own block, whether it stands above or below them.

Amino acid sequences for entries named in this document (tags omitted). A change or cut given only in a name is not applied to a line headed by its entry.
UniProt G0SCH6: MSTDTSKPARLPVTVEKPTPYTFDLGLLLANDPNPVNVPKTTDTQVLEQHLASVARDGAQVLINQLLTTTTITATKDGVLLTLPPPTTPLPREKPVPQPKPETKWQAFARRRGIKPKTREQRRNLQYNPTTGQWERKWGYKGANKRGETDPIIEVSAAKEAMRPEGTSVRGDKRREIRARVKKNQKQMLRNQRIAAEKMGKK
UniProt G0SF80: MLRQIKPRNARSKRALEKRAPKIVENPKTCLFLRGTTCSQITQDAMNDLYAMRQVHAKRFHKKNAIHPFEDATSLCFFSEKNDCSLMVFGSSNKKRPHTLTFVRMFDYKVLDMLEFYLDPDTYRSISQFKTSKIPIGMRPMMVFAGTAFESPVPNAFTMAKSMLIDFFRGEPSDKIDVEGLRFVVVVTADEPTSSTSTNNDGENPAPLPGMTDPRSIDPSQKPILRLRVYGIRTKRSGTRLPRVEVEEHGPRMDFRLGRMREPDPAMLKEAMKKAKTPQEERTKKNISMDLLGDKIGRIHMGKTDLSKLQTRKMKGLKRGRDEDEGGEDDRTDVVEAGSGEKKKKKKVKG
UniProt G0S5S6: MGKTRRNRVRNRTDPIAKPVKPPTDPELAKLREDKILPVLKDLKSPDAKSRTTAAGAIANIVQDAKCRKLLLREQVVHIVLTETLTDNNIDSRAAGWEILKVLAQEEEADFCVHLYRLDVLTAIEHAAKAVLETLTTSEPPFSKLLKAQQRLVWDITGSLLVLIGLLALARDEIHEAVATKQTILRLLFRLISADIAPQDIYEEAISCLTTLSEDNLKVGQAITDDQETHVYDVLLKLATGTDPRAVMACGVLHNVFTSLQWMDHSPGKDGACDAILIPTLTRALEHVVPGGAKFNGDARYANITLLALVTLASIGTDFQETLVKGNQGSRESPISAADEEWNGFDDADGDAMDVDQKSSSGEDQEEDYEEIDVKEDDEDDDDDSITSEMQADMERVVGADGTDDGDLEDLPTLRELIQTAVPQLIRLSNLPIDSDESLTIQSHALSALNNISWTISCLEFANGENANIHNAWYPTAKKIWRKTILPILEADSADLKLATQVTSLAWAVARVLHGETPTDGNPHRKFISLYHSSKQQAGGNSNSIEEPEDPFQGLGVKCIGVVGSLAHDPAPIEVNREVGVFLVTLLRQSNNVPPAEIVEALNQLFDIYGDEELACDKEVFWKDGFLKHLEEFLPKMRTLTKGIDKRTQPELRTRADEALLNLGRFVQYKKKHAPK
UniProt G0SF90: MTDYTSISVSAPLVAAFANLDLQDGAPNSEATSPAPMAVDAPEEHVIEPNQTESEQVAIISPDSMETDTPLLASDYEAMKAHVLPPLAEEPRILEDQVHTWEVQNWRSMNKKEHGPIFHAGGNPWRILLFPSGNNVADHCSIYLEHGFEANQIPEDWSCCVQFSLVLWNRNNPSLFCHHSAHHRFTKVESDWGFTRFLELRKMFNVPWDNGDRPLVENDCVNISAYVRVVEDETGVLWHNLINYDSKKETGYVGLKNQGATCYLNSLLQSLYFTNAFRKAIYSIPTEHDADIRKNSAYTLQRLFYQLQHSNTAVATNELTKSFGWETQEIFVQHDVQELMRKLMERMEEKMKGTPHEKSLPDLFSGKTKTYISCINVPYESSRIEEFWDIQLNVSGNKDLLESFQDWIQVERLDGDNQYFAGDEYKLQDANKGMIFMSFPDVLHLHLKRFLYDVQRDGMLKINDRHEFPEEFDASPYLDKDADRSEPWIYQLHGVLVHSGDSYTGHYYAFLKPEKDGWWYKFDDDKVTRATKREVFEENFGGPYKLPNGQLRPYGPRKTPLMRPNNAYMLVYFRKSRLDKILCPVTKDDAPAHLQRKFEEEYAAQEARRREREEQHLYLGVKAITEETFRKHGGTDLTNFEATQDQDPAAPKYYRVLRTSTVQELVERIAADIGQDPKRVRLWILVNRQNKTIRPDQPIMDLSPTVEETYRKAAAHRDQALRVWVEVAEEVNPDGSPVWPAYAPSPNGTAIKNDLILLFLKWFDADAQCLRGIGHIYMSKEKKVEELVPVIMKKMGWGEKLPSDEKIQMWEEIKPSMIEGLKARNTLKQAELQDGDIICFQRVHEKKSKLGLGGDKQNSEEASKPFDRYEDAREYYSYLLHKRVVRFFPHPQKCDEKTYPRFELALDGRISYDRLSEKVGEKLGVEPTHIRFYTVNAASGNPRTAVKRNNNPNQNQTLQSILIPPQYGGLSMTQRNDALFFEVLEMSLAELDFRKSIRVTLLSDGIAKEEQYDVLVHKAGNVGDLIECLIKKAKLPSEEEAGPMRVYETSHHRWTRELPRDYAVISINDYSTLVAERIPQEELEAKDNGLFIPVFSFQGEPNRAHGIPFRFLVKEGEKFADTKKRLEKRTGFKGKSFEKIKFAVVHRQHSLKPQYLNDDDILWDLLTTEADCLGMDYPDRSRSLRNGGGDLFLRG
UniProt G0S604: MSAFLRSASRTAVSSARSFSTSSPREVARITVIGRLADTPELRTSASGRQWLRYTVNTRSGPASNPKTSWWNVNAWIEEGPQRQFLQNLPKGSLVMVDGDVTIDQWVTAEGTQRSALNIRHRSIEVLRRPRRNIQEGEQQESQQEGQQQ
UniProt G0SHQ2: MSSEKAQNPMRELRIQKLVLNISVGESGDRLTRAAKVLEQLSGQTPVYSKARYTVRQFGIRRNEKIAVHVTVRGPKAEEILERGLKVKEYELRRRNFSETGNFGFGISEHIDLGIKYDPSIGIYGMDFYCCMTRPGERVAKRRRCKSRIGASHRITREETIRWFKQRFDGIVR
UniProt G0SEG2: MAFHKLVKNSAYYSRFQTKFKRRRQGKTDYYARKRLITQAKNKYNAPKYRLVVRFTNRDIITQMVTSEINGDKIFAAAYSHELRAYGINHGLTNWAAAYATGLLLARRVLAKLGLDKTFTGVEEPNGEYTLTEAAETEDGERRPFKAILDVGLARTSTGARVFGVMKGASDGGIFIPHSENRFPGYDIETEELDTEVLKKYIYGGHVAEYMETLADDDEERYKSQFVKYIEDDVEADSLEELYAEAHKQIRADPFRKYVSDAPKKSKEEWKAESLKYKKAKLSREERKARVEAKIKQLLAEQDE
UniProt Q06205: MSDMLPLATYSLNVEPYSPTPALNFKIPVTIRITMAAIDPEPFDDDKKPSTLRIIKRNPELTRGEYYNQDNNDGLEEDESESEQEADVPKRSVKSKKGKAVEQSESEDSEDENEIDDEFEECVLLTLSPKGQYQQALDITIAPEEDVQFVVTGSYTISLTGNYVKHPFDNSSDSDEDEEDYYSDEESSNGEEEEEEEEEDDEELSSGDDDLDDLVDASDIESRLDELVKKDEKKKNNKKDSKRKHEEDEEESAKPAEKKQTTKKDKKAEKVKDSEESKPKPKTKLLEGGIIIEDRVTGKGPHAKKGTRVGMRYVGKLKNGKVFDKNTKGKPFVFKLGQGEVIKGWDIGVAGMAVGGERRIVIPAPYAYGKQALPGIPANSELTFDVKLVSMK
UniProt G0SC91: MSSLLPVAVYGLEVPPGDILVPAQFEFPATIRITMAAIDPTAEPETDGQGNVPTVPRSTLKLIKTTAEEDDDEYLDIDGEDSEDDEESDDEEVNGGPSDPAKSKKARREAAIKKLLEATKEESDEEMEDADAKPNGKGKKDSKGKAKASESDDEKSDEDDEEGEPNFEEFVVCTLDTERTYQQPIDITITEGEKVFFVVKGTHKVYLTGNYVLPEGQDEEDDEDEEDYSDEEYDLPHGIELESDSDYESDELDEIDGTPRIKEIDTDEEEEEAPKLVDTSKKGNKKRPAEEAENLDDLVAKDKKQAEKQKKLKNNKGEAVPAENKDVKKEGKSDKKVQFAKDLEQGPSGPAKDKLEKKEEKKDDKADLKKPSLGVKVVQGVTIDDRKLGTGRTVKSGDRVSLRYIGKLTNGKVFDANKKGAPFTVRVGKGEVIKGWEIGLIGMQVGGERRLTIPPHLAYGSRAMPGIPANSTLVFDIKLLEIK

Key:
[1] = target: T1, ProtA-TEV-tagged scSyo1 (S. cerevisiae) (UniProt Q07395); test: affinity purification with mass spectrometry; split-tag tandem affinity purification (ProtA bait on IgG Sepharose, TEV elution, FLAG bait on anti-FLAG gel, FLAG peptide elution) from lysate of S. cerevisiae expressing the factors; NB-HEPES buffer; SDS-PAGE, Coomassie, bands identified by mass spectrometry; the complexes contain yeast 5S rRNA
T1 sequence: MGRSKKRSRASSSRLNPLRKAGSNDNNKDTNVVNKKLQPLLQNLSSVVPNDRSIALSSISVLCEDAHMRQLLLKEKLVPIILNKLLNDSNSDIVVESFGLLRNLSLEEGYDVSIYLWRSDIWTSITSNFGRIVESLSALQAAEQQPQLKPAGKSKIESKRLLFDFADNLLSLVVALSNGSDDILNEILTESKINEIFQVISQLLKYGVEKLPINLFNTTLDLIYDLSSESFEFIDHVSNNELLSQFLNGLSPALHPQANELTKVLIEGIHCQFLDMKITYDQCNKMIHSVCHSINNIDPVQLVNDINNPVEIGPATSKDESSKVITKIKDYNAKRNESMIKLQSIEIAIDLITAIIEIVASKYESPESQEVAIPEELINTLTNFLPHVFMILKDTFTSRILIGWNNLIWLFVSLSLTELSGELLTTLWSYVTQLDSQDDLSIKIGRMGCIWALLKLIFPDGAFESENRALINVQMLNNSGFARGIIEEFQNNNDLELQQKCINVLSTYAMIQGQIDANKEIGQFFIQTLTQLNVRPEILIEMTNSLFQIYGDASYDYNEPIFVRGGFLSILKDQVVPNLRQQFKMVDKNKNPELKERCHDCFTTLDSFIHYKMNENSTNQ

[2] = target: ctRrs1-FLAG-TEV-ProtA (Chaetomium thermophilum) (UniProt G0SCH6); test: affinity purification with mass spectrometry; FLAG-TEV-ProtA (FtpA)-tagged bait from C. thermophilum mycelium lysate; IgG Sepharose, TEV elution, anti-FLAG gel, FLAG peptide elution; NB-HEPES buffer (20 mM HEPES pH 7.5, 150 mM NaCl, 50 mM K(OAc), 2 mM Mg(OAc)2, 1 mM DTT, 5% glycerol, 0.1% IGEPAL CA-630); FLAG eluate on a 5–30% sucrose gradient, SDS-PAGE, bands identified by mass spectrometry; the complex contains 5S rRNA
[3] = target: ctRpf2-FLAG-TEV-ProtA (Chaetomium thermophilum) (UniProt G0SF80); test: as above
[4] = target: ctSyo1-FLAG-TEV-ProtA (Chaetomium thermophilum) (UniProt G0S5S6); test: as above
[5] = target: ProtA-TEV-ctSyo1 (Chaetomium thermophilum) (UniProt G0S5S6); test: affinity purification with mass spectrometry; split-tag tandem affinity purification (ProtA bait on IgG Sepharose, TEV elution, FLAG bait on anti-FLAG gel, FLAG peptide elution) from lysate of S. cerevisiae expressing the factors; NB-HEPES buffer; SDS-PAGE, Coomassie, bands identified by mass spectrometry; the complexes contain yeast 5S rRNA
[6] = target: T2, Rpf2-FtpA (yeast) (S. cerevisiae) (UniProt P36160); test: affinity purification with mass spectrometry; tandem affinity purification via FtpA-tagged Rpf2 (wild type or ΔC) from yeast after 6 h repression of GAL::HA-RPF2 and GAL::HA-RRS1 in glucose; eluate on a 5–30% sucrose gradient, SDS-PAGE, Coomassie, bands identified by mass spectrometry
T2 sequence: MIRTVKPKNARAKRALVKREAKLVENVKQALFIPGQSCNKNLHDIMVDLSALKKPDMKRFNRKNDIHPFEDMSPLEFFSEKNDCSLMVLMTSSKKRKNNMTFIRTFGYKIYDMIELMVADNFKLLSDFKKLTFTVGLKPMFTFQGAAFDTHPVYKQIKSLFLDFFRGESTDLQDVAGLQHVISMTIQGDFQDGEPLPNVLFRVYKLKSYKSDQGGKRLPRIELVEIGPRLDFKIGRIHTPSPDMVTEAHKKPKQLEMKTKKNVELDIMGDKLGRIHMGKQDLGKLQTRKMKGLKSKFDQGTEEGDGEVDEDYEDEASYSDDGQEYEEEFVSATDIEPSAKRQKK

[7] = target: T3, FLAG-scRrs1 (S. cerevisiae) (UniProt Q08746); test: affinity purification with mass spectrometry; split-tag tandem affinity purification (ProtA bait on IgG Sepharose, TEV elution, FLAG bait on anti-FLAG gel, FLAG peptide elution) from lysate of S. cerevisiae expressing the factors; NB-HEPES buffer; SDS-PAGE, Coomassie, bands identified by mass spectrometry; the complexes contain yeast 5S rRNA
T3 sequence: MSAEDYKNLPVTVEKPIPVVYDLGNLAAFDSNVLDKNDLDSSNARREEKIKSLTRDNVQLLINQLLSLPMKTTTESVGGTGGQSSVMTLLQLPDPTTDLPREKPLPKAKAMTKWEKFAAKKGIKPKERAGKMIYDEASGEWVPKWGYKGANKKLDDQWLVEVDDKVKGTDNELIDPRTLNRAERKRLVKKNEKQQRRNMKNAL

[8] = target: T4, hsRpf2 (second bait) (human) (UniProt Q9H7B2); test: as above
T4 sequence: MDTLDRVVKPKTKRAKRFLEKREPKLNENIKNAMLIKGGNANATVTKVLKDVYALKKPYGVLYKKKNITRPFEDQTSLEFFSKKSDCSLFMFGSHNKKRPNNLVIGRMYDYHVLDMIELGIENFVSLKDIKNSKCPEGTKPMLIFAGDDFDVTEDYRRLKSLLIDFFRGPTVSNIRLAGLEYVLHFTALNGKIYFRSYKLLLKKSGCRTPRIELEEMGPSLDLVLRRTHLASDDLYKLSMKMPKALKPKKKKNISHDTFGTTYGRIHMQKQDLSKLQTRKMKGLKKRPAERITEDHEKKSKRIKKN

[9] = target: FLAG-ctRrs1 (Chaetomium thermophilum) (UniProt G0SCH6); test: as above

binding [4]: binds
Molecule: CTHT_0061210 (from UniProt G0SF90)

binding [4]: binds
Molecule: ctRrs1 (from UniProt G0SCH6)

binding [4]: binds
Molecule: CTHT_0025560 (from UniProt G0S604)

binding [1]: binds
B1: scRpf2 (protein, UniProt P36160 1-344)
chain: T2 sequence

binding [1]: binds | binding [7]: binds
B3: scuL18 (protein, UniProt P26321 1-297)
chain: MAFQKDAKSSAYSSRFQTPFRRRREGKTDYYQRKRLVTQHKAKYNTPKYRLVVRFTNKDIICQIISSTITGDVVLAAAYSHELPRYGITHGLTNWAAAYATGLLIARRTLQKLGLDETYKGVEEVEGEYELTEAVEDGPRPFKVFLDIGLQRTTTGARVFGALKGASDGGLYVPHSENRFPGWDFETEEIDPELLRSYIFGGHVSQYMEELADDDEERFSELFKGYLADDIDADSLEDIYTSAHEAIRADPAFKPTEKKFTKEQYAAESKKYRQTKLSKEERAARVAAKIAALAGQQ

binding [6]: binds
B5: Fpr3 (protein, UniProt P38911 1-411)
chain: MSDLLPLATYSLNVEPYTPVPAIDVTMPITVRITMAALNPEAIDEENKPSTLRIIKRNPDFEDDDFLGGDFDEDEIDEESSEEEEEEKTQKKKKSKGKKAESESEDDEEDDDEDDEFQESVLLTLSPEAQYQQSLDLTITPEEEVQFIVTGSYAISLSGNYVKHPFDTPMGVEGEDEDEDADIYDSEDYDLTPDEDEIIGDDMDDLDDEEEEEVRIEEVQEEDEEDNDGEEEQEEEEEEEQKEEVKPEPKKSKKEKKRKHEEKEEEKKAKKVKKVEFKKDLEEGPTKPKSKKEQDKHKPKSKVLEGGIVIEDRTIGDGPQAKRGARVGMRYIGKLKNGKVFDKNTSGKPFAFKLGRGEVIKGWDIGVAGMSVGGERRIIIPAPYAYGKQALPGIPANSELTFDVKLVSMKN

Second part, the molecule before the results:

Molecule: Rrs1ΔC (S. cerevisiae) (domain or fragment)
binding [1]: binds

Molecule: ctuL5 (from UniProt G0SHQ2)
binding [2]: binds | binding [3]: binds | binding [4]: binds

Molecule: ctuL18 (from UniProt G0SEG2)
binding [2]: binds | binding [3]: binds | binding [4]: binds

Molecule: FLAG-ctRrs1 (from UniProt G0SCH6)
binding [5]: binds

Molecule: Fpr4 (from UniProt Q06205 1-392)
binding [6]: binds

Molecule: scuL5 (S. cerevisiae)
binding [1]: binds | binding [7]: binds

Molecule: CTHT_0056370 (Fpr4 homologue) (from UniProt G0SC91)
binding [4]: binds

Molecule: FLAG-Rpf2ΔC (S. cerevisiae) (domain or fragment)
binding [1]: binds

Molecule: ctSyo1 (from UniProt G0S5S6)
binding [2]: binds | binding [3]: binds

B2: hsSyo1 (HEATR3) (protein, UniProt Q7Z4Q2 1-680)
chain: MGKSRTKRFKRPQFSPTGDCQAEAAAAANGTGGEEDDGPAAELLEKLQHPSAEVRECACAGLARLVQQRPALPGLARRDAVRRLGPLLLDPSLAVRETAAGALRNLSACGGFEVCDDMVTKDIMTPLVALLKECSAGLDSNEMSLQEKKDQNRNSIENIANETVNVLWNICECSSRAVSIFNKEGCLEIVLKYLSRFPTNVDLAISVAYCLQTVTEDNPELLKSFSATALNMLESALLSPVSSMESLLLKTLVAGTIWNLKDIIPCKSQAEIINALLKILSEVLGMDAGEMVIQMKEAETQRLKTAAEAEEILENTNGDDLIEDDEMEGISHKRRVRRKTFVSDLLPPTDKELRETIALLTAQQTALEIIVNMCCNEDPSDDEWEELSSSDESDAFMENSFSECGGQLFSPLCLSHEVHTALTNYLIPKKIFEKTAFPNSIAVDLCSRNPTWKPLIRKMNTIQCRALFCLQSLVSLLDVEHLGGAAALQTLAQHLSQLLFSQPDFAKHVDFLEAISSALRALLQTMASKNISQCMTPDQLMTLCKAGIHSSNVGVRVNVVSILGITGSVLAKEDGTLETLKNIGCFLLEVTTKDPSLVVAGEALDALFDVFADGKEAERASIQIKLLSALKEFQPVFKMKIRKEGRGNYSTDQLCVLDNVKMNLRRFIAYQETVEKRLTS
binding [8]: binds

B4: endogenous yeast uL18 (protein, UniProt P26321 1-297)
chain: B3 chain
binding [9]: binds | binding [5]: binds
